Counter-ions that a name gives are not always drawn. The list shows a part of the results. Many values rest on one well or one pass, so single values are uncertain.
How the values were obtained:
Assay in all cases: reduction in cell viability relative to untreated/vehicle; higher = more growth inhibition
Conditions in all cases: 200 nM; 72 h
M229P = test system: M229P (parental melanoma line)
M229R = test system: M229R (matched melanoma line resistant to BRAF inhibitors)
M238P = test system: M238P (parental melanoma line)
M238R = test system: M238R (matched melanoma line resistant to BRAF inhibitors)
M249P = test system: M249P (parental melanoma line)
M249R = test system: M249R (matched melanoma line resistant to BRAF inhibitors)
UACC62P = test system: UACC62P (parental melanoma line)
UACC62R = test system: UACC62R (matched melanoma line resistant to BRAF inhibitors)

SMILES	reduction in cell viability (M229P) [%]	reduction in cell viability (M229R) [%]	reduction in cell viability (M238P) [%]	reduction in cell viability (M238R) [%]	reduction in cell viability (M249P) [%]	reduction in cell viability (M249R) [%]	reduction in cell viability (UACC62P) [%]	reduction in cell viability (UACC62R) [%]
C[C@]12CC[C@H](O)CC1=CC[C@@H]1[C@@H]2CC[C@]2(C)C(n3cnc4ccccc43)=CC[C@@H]12 [Galeterone]	< 0	< 0	< 0	< 0	< 0	< 0	< 0	< 0
O=c1c(-c2ccc(O)cc2)coc2cc(O)cc(O)c12 [Genistein]	< 0	< 0	< 0	< 0	< 0	< 0	< 0	< 0
N#CC(c1ccc(Cl)cc1)c1c(Cl)cc(-n2ncc(=O)[nH]c2=O)cc1Cl (centres undefined) [Diclazuril]	< 0	< 0	< 0	< 0	< 0	11.3	< 0	< 0
CC1=C(C(=O)Nc2cc3cn[nH]c3cc2F)C(c2ccc(C(F)(F)F)cc2)CC(=O)N1 (centres undefined)	< 0	< 0	< 0	< 0	< 0	< 0	< 0	< 0
O=c1n(CCCN2CCN(c3cccc(Cl)c3)CC2)nc2ccccn12 [Trazodone hydrochloride]	< 0	< 0	< 0	< 0	< 0	< 0	< 0	< 0
Cc1cccc(Nc2nc(N[C@@H]3CCCC[C@@H]3N)ncc2C(N)=O)c1	< 0	< 0	< 0	< 0	< 0	< 0	< 0	< 0
OC(Cn1cncn1)(Cn1cncn1)c1ccc(F)cc1F [Fluconazole]	< 0	< 0	< 0	< 0	< 0	< 0	< 0	< 0
CCC1=C(C)CN(C(=O)NCCc2ccc(S(=O)(=O)NC(=O)N[C@H]3CC[C@H](C)CC3)cc2)C1=O [Glimepiride]	< 0	0.2	< 0	< 0	< 0	< 0	< 0	< 0
CC[C@H](C)C(=O)O[C@H]1C[C@H](O)C=C2C=C[C@H](C)[C@H](CC[C@@H](O)C[C@@H](O)CC(=O)O)[C@H]21 [Pravastatin sodium]	< 0	< 0	< 0	< 0	< 0	< 0	< 0	< 0
Nc1cc(N2CCCCC2)nc(N)[n+]1[O-] [Minoxidil]	13.9	< 0	< 0	< 0	< 0	< 0	< 0	< 0
Cc1ccc(/C=N/NC(=O)c2ccccc2Oc2ccccc2)o1	< 0	< 0	< 0	< 0	< 0	< 0	< 0	< 0
CC(C)[C@H](NS(=O)(=O)c1ccc(-c2ccc(Br)cc2)cc1)C(=O)O	< 0	< 0	< 0	< 0	< 0	< 0	< 0	< 0
Cn1c(=O)c2[nH]cnc2n(C)c1=O [Theophyllamine]	< 0	< 0	< 0	< 0	< 0	< 0	< 0	< 0
O=C1NC(=O)C(c2ccccc2[N+](=O)[O-])=C1Nc1ccc(O)c(Cl)c1	< 0	< 0	< 0	< 0	< 0	< 0	< 0	< 0
COc1ncnc(NS(=O)(=O)c2ccc(N)cc2)c1OC [Sulfadoxine]	< 0	< 0	< 0	< 0	2	< 0	2.24	< 0
COc1ccc2c3n(c(=NC(=O)c4cccnc4)nc2c1OC)CCN3	< 0	< 0	< 0	< 0	< 0	< 0	< 0	< 0
Nc1nc(=O)n([C@H]2C[C@H](O)[C@@H](CO)O2)cc1F	< 0	< 0	13.3	< 0	< 0	< 0	13	63
COc1cc2c(cc1OC)CN(CCc1ccc(NC(=O)c3cc(OC)c(OC)cc3NC(=O)c3cnc4ccccc4c3)cc1)CC2 [Tariquidar]	< 0	< 0	< 0	< 0	< 0	< 0	< 0	< 0
CCOc1ccccc1OCCN[C@H](C)Cc1ccc(OC)c(S(N)(=O)=O)c1 [Tamsulosin hydrochloride]	< 0	< 0	< 0	< 0	< 0	< 0	< 0	< 0

SMILES	reduction in cell viability (M229P) [%]	reduction in cell viability (M229R) [%]	reduction in cell viability (M238P) [%]	reduction in cell viability (M238R) [%]	reduction in cell viability (M249P) [%]	reduction in cell viability (M249R) [%]	reduction in cell viability (UACC62P) [%]	reduction in cell viability (UACC62R) [%]
CN1CCC(COc2cnc(-c3cccc(Cn4nc(-c5cccc(C#N)c5)ccc4=O)c3)nc2)CC1	< 0	< 0	< 0	< 0	< 0	< 0	< 0	< 0
CCC(=O)NCC[C@@H]1CCc2ccc3c(c21)CCO3 [Ramelteon]	< 0	< 0	< 0	< 0	< 0	< 0	< 0	< 0
Nc1ccc(S(N)(=O)=O)cc1 [Sulfanilamide]	< 0	< 0	< 0	< 0	< 0	< 0	< 0	< 0
CCCCc1oc2ccccc2c1C(=O)c1cc(I)c(OCCN(CC)CC)c(I)c1 [Amiodarone hydrochloride]	< 0	< 0	< 0	< 0	< 0	3.19	4.3	< 0
CCOC(=O)N1CCN(/[N+]([O-])=N/Oc2ccc([N+](=O)[O-])cc2[N+](=O)[O-])CC1	< 0	4.15	< 0	< 0	< 0	< 0	< 0	< 0
C[C@H](CCC(=O)O)[C@H]1CC[C@H]2[C@@H]3[C@@H](O)C[C@@H]4C[C@H](O)CC[C@]4(C)[C@H]3CC[C@]12C [Ursodiol]	< 0	< 0	< 0	< 0	< 0	< 0	< 0	< 0
O=C1c2c(O)ccc(O)c2C(=O)c2c(NCCNCCO)ccc(NCCNCCO)c21 [Mitoxantrone]	79.9	70.5	88.5	85.9	84	84	87.5	81.9
COc1cc2nccc(Oc3ccc(NC(=O)C4(C(=O)Nc5ccc(F)cc5)CC4)cc3)c2cc1OC	< 0	< 0	< 0	< 0	< 0	< 0	< 0	< 0
Cc1cc(Nc2cc(N3CCN(C)CC3)nc(Sc3ccc(NC(=O)C4CC4)cc3)n2)n[nH]1 [Tozasertib]	< 0	< 0	22.2	27.9	< 0	7.94	5.1	65.1
O=c1cc(CN2CCOCC2)occ1OCCCCCSc1ccnc2cc(C(F)(F)F)ccc12	9.47	< 0	< 0	< 0	< 0	< 0	< 0	< 0
CCC[C@H](NC(=O)/C(C#N)=C/c1cccc(Br)n1)c1ccccc1 [Degrasyn]	< 0	< 0	< 0	< 0	< 0	0.51	11.3	< 0
O=C(O)c1cccnc1 [Niacin]	< 0	< 0	< 0	< 0	0.94	7.17	0.85	< 0
C[C@]12CCC(=O)C=C1[C@@H]1C[C@@H]1[C@H]1[C@@H]3[C@@H]4C[C@@H]4[C@@]4(CCC(=O)O4)[C@@]3(C)CC[C@@H]12 [Drospirenone]	< 0	< 0	< 0	< 0	< 0	< 0	< 0	< 0
Clc1ccc(COC(Cn2ccnc2)c2ccc(Cl)cc2Cl)c(Cl)c1 (centres undefined) [Miconazole nitrate]	< 0	< 0	< 0	< 0	< 0	< 0	< 0	< 0
O=C1Nc2ccccc2/C1=C1/Nc2ccccc2C1=O [Indirubin]	< 0	< 0	< 0	< 0	< 0	< 0	< 0	< 0
O=C(NCC1CCCCN1)c1cc(OCC(F)(F)F)ccc1OCC(F)(F)F (centres undefined) [Flecainide]	< 0	< 0	< 0	< 0	< 0	< 0	< 0	< 0
O=C1NC(O)CCN1[C@@H]1O[C@H](CO)[C@@H](O)[C@H]1O (some centres undefined) [Tetrahydrouridine]	< 0	3.4	< 0	< 0	< 0	< 0	< 0	< 0
Cc1ccc(NC(=O)c2cccc(C(C)(C)C#N)c2)cc1Nc1ccc2ncn(C)c(=O)c2c1	14.7	< 0	25.8	< 0	42.5	39.6	50.6	21.2
CC(C)(C)c1cc(NC(=O)Nc2ccc(-c3cn4c(n3)sc3cc(OCCN5CCOCC5)ccc34)cc2)no1 [Quizartinib]	< 0	< 0	4.57	< 0	30.7	4.96	8.45	< 0

Some of the entries above in a different format.
SMILES | reduction in cell viability (M229P) [%] | reduction in cell viability (M229R) [%] | reduction in cell viability (M238P) [%] | reduction in cell viability (M238R) [%] | reduction in cell viability (M249P) [%] | reduction in cell viability (M249R) [%] | reduction in cell viability (UACC62P) [%] | reduction in cell viability (UACC62R) [%]
Cc1cc(Nc2cc(N3CCN(C)CC3)nc(Sc3ccc(NC(=O)C4CC4)cc3)n2)n[nH]1 [Tozasertib] | < 0 | < 0 | 22.2 | 27.9 | < 0 | 7.94 | 5.1 | 65.1
O=c1cc(CN2CCOCC2)occ1OCCCCCSc1ccnc2cc(C(F)(F)F)ccc12 | 9.47 | < 0 | < 0 | < 0 | < 0 | < 0 | < 0 | < 0
